Laboratory results reported in article PMC3141063.

Amino acid sequences for entries named in this document (tags omitted). A change or cut given only in a name is not applied to a line headed by its entry.
UniProt Q583J0: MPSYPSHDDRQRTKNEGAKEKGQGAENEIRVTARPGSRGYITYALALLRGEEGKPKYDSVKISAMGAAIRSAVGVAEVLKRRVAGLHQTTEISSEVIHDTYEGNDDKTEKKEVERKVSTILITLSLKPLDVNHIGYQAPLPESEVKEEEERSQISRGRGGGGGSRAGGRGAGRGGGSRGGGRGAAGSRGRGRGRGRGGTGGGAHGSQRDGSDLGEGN
UniProt Q583I9: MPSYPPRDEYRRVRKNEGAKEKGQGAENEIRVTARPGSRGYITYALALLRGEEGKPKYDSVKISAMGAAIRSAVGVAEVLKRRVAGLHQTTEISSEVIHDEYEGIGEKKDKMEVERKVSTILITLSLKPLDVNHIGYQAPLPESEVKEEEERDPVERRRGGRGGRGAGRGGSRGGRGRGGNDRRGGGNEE

Key:
[1] = target: T1, HA-Alba2 (Trypanosoma brucei) (UniProt Q385X2); experiment: co-IP; as the CoIP with HA-tagged baits, but RNase inhibitor replaced with RNase A (5-20 µg; 10 to 40 µg/ml) in the extract
T1 sequence: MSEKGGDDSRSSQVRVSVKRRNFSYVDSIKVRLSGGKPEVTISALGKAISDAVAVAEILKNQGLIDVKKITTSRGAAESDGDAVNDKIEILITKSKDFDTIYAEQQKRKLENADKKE

[2] = target: T1, HA-Alba2 (Trypanosoma brucei); experiment: co-IP; HA-tagged bait induced with tetracycline in procyclic T. brucei; extract in IP buffer (20 mM Tris-HCl pH 7.6, 150 mM NaCl, 1 mM EDTA, 1 mM DTT, 0.5% NP-40) with RNase inhibitor; anti-HA affinity matrix, 2 h, 4°C; immunoblot with Alba-specific or anti-P0 antibodies; cycloheximide or puromycin before the CoIP did not affect Alba3/eIF4E4
[3] = target: HA-Alba4 (Trypanosoma brucei) (UniProt Q583J0); experiment: co-IP; as the CoIP with HA-tagged baits, but RNase inhibitor replaced with RNase A (5-20 µg; 10 to 40 µg/ml) in the extract
[4] = target: HA-Alba4 (Trypanosoma brucei) (UniProt Q583J0); experiment: co-IP; HA-tagged bait induced with tetracycline in procyclic T. brucei; extract in IP buffer (20 mM Tris-HCl pH 7.6, 150 mM NaCl, 1 mM EDTA, 1 mM DTT, 0.5% NP-40) with RNase inhibitor; anti-HA affinity matrix, 2 h, 4°C; immunoblot with Alba-specific or anti-P0 antibodies; cycloheximide or puromycin before the CoIP did not affect Alba3/eIF4E4
[5] = target: HA-tagged eIF4G3 (Trypanosoma brucei); experiment: as above
[6] = target: PTP-tagged eIF4G3 (Trypanosoma brucei); experiment: co-IP; PTP-tagged versions of eIF4G3 as bait; no figure and no further details

Molecule: Alba3 (from UniProt Q583I9)
- binding [3]: binds
- binding [4]: binds

B1: Alba1 (protein, UniProt Q385X1 1-125)
chain: MTTGKSDRPRNSVRVGYRGTKFLFVDITKHLLHDGEKEVYVSALGGAINEAVSVVEMLKDQQMVVVKKITTSRQVSEEPDDGPVDKIEIVVTKADGFDAKYEEQQKAREAKRLEKEKNEKEKATA
- binding [5]: no binding
- binding [6]: no binding

More lines, now with the values ahead:

- binding [1]: binds
- binding [2]: binds
Molecule: ribosomal stalk protein P0

- binding [3]: binds
- binding [5]: no binding
- binding [4]: binds
- binding [6]: no binding
B2: Alba2 (protein, UniProt Q385X2 1-117)
chain: T1 sequence

Results are given in words; binding and its absence hold for the method and conditions named. In cells and extracts the contact can be indirect. For some of these results: Binding calls can cover weak binding; strength is not graded here. For some of these results: Sequences can lack the tags named with a protein. Each block holds one molecule with its values, some of them ahead of it.
